Earlier results, collected in US12729367B2, “Radial glia and astrocyte differentiation from human pluripotent stem cells” (The United States of America, as represented by the …, priority 2020, dated 2026).
At least one structure is not confirmed: it was looked up by name or label, or the drawing left a doubt.

Biological target: adenylyl cyclase
Settings: read-out: IC50 (activates adenylyl cyclase); cited from earlier work

In the case of `C=C[C@@]1(C)CC(=O)[C@]2(O)[C@@]3(C)[C@@H](O)CCC(C)(C)[C@@H]3[C@H](O)[C@H](OC(C)=O)[C@@]2(C)O1` [forskolin], the IC50 is listed as 41 nM.
